No constants are given. Whether binding was seen depends on the method and setting. In cells and extracts the contact can be indirect. Some results given as binding are weak or reduced against the parent protein; the word gives no strength.
Biological target: AGIA-RelA (human), Q04206
Assay: co-IP; lysate of AGIA-RelA transfected HEK293T cells (150 mM NaCl, 25 mM Tris-HCl pH 7.5, 1 mM EDTA, 1% Triton X-100) with anti-AGIA antibody sepharose, 4°C overnight; blot with IκBα specific antibody; control with protein G sepharose and normal rabbit IgG
Settings: remark: other sources report otherwise

binding: binds
B1: IκBα, P25963 1-317 (protein)
chain: MFQAAERPQEWAMEGPRDGLKKERLLDDRHDSGLDSMKDEEYEQMVKELQEIRLEPQEVPRGSEPWKQQLTEDGDSFLHLAIIHEEKALTMEVIRQVKGDLAFLNFQNNLQQTPLHLAVITNQPEIAEALLGAGCDPELRDFRGNTPLHLACEQGCLASVGVLTQSCTTPHLHSILKATNYNGHTCLHLASIHGYLGIVELLVSLGADVNAQEPCNGRTALHLAVDLQNPDLVSLLLKCGADVNRVTYQGYSPYQLTWGRPSTRIQQQLGQLTLENLQMLPESEDEESYDTESEFTEFTEDELPYDDCVFGGQRLTL

— article PMC4894603
